Laboratory results: the supplement of paper PMC10849652
The other results are listed elsewhere or left out.

Sequences of proteins named here, by UniProt entry; tags and fusion partners are left off. A change or cut given only in a name is not applied to a line headed by its entry.
UniProt O43156, whole entry, looked up: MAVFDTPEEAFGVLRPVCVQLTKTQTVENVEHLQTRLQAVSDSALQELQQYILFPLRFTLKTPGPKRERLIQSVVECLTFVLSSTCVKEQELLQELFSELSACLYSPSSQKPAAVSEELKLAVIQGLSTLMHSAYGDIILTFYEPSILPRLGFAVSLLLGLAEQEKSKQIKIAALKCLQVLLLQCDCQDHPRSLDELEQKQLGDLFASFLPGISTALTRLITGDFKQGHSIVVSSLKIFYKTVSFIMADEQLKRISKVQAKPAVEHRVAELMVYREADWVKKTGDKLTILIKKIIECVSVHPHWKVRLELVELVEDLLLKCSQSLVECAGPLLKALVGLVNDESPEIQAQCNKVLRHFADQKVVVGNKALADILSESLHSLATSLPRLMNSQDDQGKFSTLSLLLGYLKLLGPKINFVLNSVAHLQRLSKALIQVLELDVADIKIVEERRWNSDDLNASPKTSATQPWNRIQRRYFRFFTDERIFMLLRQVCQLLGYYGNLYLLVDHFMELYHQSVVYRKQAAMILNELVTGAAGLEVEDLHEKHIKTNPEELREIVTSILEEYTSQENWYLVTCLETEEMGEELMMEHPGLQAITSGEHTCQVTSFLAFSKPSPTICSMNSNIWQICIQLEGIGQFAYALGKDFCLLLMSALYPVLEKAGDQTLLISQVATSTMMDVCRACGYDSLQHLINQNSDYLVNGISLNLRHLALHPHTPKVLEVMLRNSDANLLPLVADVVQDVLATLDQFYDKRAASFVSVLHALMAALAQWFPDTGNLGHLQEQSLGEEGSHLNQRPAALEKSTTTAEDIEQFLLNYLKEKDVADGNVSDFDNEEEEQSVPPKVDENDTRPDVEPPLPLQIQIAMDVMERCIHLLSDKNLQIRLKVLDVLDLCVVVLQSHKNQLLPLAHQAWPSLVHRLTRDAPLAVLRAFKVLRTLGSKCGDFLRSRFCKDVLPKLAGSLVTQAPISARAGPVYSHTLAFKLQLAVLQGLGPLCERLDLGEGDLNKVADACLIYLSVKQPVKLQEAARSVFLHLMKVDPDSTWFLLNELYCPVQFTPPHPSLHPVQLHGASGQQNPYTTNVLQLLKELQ
UniProt Q7Z6J9: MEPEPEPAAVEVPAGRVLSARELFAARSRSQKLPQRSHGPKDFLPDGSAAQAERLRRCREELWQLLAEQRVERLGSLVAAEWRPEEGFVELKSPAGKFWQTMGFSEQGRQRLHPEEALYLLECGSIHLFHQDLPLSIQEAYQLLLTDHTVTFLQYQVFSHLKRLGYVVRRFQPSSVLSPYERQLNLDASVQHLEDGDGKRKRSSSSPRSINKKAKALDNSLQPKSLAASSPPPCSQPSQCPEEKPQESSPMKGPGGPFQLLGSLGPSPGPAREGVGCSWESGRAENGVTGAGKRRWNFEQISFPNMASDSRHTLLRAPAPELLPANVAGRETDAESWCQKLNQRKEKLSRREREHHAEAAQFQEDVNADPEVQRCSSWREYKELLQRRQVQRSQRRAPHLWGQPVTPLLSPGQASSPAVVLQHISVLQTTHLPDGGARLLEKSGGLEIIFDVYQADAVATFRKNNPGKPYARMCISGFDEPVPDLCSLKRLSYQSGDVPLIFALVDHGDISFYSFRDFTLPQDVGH
UniProt Q15631: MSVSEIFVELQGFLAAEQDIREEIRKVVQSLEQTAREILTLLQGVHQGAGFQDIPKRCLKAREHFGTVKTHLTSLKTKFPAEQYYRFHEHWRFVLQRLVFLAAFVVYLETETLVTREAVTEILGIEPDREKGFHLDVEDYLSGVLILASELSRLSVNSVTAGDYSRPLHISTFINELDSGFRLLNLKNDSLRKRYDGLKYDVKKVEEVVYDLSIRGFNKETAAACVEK
UniProt Q8IZ69: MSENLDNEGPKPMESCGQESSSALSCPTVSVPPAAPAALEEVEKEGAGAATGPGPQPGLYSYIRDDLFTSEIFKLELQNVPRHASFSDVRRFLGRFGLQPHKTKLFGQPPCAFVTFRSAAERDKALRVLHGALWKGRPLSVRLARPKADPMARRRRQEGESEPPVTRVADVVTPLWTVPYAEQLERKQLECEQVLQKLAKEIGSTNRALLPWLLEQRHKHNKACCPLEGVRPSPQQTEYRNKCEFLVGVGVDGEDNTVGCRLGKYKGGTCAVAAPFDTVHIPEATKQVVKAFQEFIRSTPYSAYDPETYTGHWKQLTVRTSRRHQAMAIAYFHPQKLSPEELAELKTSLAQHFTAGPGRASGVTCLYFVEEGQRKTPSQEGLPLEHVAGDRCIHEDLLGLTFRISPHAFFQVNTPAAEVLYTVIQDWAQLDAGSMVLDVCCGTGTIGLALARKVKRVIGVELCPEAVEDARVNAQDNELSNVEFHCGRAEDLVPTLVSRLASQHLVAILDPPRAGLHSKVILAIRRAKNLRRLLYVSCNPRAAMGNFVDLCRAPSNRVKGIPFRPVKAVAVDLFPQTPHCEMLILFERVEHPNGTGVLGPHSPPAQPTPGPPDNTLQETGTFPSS
UniProt Q6PID6, whole entry, looked up: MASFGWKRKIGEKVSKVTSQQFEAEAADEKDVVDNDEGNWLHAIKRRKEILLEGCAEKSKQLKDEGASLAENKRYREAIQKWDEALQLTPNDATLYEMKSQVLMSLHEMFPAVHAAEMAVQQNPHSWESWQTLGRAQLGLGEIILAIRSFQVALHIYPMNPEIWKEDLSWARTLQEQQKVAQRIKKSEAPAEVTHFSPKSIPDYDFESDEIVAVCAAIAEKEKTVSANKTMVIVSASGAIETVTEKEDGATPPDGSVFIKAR
UniProt Q15642: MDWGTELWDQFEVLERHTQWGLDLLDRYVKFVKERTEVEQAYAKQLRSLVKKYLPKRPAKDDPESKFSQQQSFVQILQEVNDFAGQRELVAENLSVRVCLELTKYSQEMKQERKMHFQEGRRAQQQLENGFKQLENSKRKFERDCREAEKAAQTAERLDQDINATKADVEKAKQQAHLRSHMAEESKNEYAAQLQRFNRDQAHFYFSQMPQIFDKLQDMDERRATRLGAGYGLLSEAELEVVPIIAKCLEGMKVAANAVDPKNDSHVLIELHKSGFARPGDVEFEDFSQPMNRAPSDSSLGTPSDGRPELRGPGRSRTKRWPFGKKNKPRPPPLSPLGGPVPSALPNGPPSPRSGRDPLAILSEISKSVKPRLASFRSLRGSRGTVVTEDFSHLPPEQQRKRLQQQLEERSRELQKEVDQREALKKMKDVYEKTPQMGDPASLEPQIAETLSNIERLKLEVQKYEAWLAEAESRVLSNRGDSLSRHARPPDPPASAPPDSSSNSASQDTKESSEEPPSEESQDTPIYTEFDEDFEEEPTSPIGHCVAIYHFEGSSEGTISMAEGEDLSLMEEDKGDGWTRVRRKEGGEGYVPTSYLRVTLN
UniProt Q9NXH9: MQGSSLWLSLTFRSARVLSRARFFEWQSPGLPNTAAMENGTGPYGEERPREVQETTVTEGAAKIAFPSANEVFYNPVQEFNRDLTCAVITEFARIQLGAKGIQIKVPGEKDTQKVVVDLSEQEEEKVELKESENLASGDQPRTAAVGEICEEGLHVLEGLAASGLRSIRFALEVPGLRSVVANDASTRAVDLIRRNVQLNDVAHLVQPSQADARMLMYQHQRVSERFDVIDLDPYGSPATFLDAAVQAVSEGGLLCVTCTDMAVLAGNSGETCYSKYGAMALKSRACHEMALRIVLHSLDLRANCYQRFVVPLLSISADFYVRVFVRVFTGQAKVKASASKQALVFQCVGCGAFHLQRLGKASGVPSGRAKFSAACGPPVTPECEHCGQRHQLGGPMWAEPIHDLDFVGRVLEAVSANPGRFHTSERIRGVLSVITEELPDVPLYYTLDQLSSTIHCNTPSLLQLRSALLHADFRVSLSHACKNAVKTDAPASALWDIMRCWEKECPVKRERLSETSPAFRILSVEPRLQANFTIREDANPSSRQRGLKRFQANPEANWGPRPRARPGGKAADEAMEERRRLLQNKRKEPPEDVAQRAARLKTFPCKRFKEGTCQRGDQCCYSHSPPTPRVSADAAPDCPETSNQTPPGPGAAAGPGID
UniProt O75865, whole entry, looked up: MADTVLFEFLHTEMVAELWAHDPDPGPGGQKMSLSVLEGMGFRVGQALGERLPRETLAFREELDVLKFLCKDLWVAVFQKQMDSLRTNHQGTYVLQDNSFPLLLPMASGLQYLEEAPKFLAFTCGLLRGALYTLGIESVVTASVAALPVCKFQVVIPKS
UniProt Q13630: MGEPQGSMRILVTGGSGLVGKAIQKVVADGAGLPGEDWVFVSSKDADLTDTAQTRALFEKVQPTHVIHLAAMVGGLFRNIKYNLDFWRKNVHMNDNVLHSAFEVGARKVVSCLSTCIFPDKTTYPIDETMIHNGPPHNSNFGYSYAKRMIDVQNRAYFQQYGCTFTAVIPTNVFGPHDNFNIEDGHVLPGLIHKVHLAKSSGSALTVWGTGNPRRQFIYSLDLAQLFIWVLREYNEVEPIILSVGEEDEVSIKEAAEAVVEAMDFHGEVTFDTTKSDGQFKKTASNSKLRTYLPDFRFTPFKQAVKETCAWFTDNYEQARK
UniProt O43617, whole entry, looked up: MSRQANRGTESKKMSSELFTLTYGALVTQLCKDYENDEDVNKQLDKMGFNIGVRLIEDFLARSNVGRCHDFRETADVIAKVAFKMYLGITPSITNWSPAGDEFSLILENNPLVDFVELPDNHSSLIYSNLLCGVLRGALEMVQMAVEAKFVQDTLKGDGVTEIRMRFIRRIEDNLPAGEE
UniProt P36406: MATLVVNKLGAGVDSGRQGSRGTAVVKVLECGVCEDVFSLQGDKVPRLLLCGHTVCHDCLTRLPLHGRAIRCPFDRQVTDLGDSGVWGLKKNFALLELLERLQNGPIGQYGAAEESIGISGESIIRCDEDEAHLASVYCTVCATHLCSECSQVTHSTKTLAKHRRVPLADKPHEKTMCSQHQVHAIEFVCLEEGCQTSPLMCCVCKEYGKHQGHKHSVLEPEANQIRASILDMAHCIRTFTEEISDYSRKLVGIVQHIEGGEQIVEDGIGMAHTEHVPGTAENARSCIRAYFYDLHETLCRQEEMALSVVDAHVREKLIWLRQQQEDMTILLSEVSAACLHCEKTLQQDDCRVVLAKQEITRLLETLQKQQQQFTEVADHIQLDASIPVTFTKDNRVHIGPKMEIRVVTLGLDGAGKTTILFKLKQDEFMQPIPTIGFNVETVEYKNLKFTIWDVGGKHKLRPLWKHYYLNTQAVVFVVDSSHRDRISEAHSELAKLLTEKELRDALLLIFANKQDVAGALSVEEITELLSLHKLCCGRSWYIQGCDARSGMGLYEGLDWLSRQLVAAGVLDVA
UniProt Q96Q05, whole entry, looked up: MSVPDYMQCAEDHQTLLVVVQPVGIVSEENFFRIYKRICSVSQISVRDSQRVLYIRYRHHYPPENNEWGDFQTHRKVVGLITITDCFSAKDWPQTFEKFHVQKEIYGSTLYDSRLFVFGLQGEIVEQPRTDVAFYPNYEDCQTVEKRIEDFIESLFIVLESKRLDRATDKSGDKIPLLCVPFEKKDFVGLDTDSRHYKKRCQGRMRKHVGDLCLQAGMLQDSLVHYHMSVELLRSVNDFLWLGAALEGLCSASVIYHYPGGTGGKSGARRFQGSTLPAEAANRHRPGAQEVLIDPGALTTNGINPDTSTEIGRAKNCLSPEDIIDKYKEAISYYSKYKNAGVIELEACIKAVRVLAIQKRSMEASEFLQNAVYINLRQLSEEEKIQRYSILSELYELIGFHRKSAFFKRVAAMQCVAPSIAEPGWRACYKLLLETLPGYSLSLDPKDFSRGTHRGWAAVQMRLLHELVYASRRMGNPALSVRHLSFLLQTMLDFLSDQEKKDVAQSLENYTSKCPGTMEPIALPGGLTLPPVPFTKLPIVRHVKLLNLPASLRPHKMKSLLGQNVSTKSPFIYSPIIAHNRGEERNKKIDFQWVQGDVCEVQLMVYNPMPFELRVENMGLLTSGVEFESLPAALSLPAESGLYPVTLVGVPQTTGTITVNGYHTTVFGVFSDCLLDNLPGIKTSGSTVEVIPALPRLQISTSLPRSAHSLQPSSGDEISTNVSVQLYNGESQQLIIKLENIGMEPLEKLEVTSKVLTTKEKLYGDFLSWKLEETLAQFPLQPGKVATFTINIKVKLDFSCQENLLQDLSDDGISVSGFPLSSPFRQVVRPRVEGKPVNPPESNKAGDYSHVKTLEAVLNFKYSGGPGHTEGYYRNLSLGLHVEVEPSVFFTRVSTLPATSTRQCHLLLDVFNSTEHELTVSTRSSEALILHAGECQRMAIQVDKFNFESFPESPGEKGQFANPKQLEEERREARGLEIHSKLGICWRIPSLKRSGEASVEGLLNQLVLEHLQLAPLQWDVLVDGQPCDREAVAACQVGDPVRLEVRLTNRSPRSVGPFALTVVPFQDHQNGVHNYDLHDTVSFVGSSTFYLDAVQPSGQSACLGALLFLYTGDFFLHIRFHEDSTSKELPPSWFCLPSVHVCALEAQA
UniProt Q86SZ2: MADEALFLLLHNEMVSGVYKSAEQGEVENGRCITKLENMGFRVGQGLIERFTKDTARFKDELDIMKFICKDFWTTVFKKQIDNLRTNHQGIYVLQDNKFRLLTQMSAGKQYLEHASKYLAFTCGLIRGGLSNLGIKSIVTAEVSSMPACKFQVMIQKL

These targets were tested with C#Cc1cccc(Nc2ncnc3cc(OCCOC)c(OCCOC)cc23)c1 [erlotinib] (assay: log2 fold change, soluble protein after heating vs DMSO (PISA); higher = thermal stabilisation; K562 lysate, 10 uM; active = over 0.2 and 3.5 SD of the protein, either way, in both replicates (recomputed)).
Summary of the method: (§1)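 To prepare the extract, K562 pellets were dounce-homogenised in PBS pH 7.4 with 1 mM MgCl2, giving crude material at 1 mg/mL protein. This was treated with 10 μM compound for 30 min, then heated in aliquots for 3 min over 48°C-58°C before pooling and addition of NP-40 to 0.5% at 4°C. Centrifugation at 21,000xg for 90 min left soluble protein in the supernatant, which TMTpro 16plex LC-MS/MS quantified with equalised channel sums. Results are log-two fold changes in thermal stability compared with solvent controls, from duplicates.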

log2 fold change, inactive:
TRAP1 (UniProt Q12931) -0.013, TTI1 (UniProt O43156) -0.017, TRNT1 (UniProt Q96Q11) 0, TSEN54 (UniProt Q7Z6J9) 0.066, TSN (UniProt Q15631) 0.017, TRMT2A (UniProt Q8IZ69) -0.042, TTC33 (UniProt Q6PID6) 0.008, TRMU (UniProt O75648) -0.024, TSC22D1 (UniProt Q15714) 0.038, TTC19 (UniProt Q6DKK2) 0.013, TRIM11 (UniProt Q96F44) 0.005, TRIP10 (UniProt Q15642) -0.02, TRIM24 (UniProt O15164) 0.111, TRIM28 (UniProt Q13263) -0.019, TRMT1 (UniProt Q9NXH9) -0.01, TRIM44 (UniProt Q96DX7) -0.066, TRAPPC6A isoform 2 (UniProt O75865) 0.018, TRIP10 isoform 2 (UniProt Q15642) 0.067, TRIM32 (UniProt Q13049) 0.044, TSG101 (UniProt Q99816) 0.034, TSTA3 (UniProt Q13630) 0.026, TRIP6 (UniProt Q15654) -0.017, TTLL12 (UniProt Q14166) 0.006, TRAPPC8 (UniProt Q9Y2L5) 0.016, TRAF4 (UniProt Q9BUZ4) -0.042, TSEN34 (UniProt Q9BSV6) 0.019, TRAPPC3 (UniProt O43617) -0.046, TRIM23 (UniProt P36406) -0.044, TRAPPC9 isoform 2 (UniProt Q96Q05) 0.033, TRUB1 (UniProt Q8WWH5) 0.036, TRIP4 (UniProt Q15650) -0.009, TRAFD1 (UniProt O14545) 0.002, TRAPPC6B (UniProt Q86SZ2) 0.003

Each target was assayed with C/C(=N\NC(=O)C1=CC(=CC=C1)S(=O)(=O)N2CCOCC2)/C3=C(C=CC(=C3)Cl)O in the same assay as above.
Summary of the method: as §1

log2 fold change, inactive:
TRAP1 (UniProt Q12931) 0.007, TTI1 (UniProt O43156) 0.033, TRNT1 (UniProt Q96Q11) -0.081, TSEN54 (UniProt Q7Z6J9) 0.016, TSN (UniProt Q15631) -0.037, TRMT2A (UniProt Q8IZ69) -0.015, TTC33 (UniProt Q6PID6) -0.031, TRMU (UniProt O75648) -0.115, TSC22D1 (UniProt Q15714) -0.015, TTC19 (UniProt Q6DKK2) 0.081, TRIM11 (UniProt Q96F44) -0.012, TRIP10 (UniProt Q15642) 0.028, TRIM24 (UniProt O15164) -0.011, TRIM28 (UniProt Q13263) 0.009, TRMT1 (UniProt Q9NXH9) -0.011, TRIM44 (UniProt Q96DX7) 0.067, TRAPPC6A isoform 2 (UniProt O75865) 0.095, TRIP10 isoform 2 (UniProt Q15642) -0.053, TRIM32 (UniProt Q13049) -0.022, TSG101 (UniProt Q99816) -0.059, TSTA3 (UniProt Q13630) 0.04, TRIP6 (UniProt Q15654) -0.02, TTLL12 (UniProt Q14166) 0.049, TRAPPC8 (UniProt Q9Y2L5) 0.004, TRAF4 (UniProt Q9BUZ4) 0.153, TSEN34 (UniProt Q9BSV6) -0.055, TRAPPC3 (UniProt O43617) -0.033, TRIM23 (UniProt P36406) -0.022, TRAPPC9 isoform 2 (UniProt Q96Q05) 0.113, TRUB1 (UniProt Q8WWH5) 0.065, TRIP4 (UniProt Q15650) 0.027, TRAFD1 (UniProt O14545) -0.062, TRAPPC6B (UniProt Q86SZ2) 0.049

These targets were tested with C1=CC(=CC=C1C2=NC3=C(N2)C=C(C=C3)C(=O)N)OC4=CC=C(C=C4)Cl in the same assay as above.
Summary of the method: as §1

log2 fold change, inactive:
TRAP1 (UniProt Q12931) -0.001, TTI1 (UniProt O43156) -0.049, TRNT1 (UniProt Q96Q11) 0.03, TSEN54 (UniProt Q7Z6J9) 0.031, TSN (UniProt Q15631) 0.013, TRMT2A (UniProt Q8IZ69) -0.007, TTC33 (UniProt Q6PID6) -0.014, TRMU (UniProt O75648) -0.043, TSC22D1 (UniProt Q15714) 0.048, TTC19 (UniProt Q6DKK2) 0.007, TRIM11 (UniProt Q96F44) -0.008, TRIP10 (UniProt Q15642) -0.029, TRIM24 (UniProt O15164) -0.026, TRIM28 (UniProt Q13263) -0.001, TRMT1 (UniProt Q9NXH9) 0.005, TRIM44 (UniProt Q96DX7) -0.016, TRAPPC6A isoform 2 (UniProt O75865) 0.002, TRIP10 isoform 2 (UniProt Q15642) 0.034, TRIM32 (UniProt Q13049) 0.014, TSG101 (UniProt Q99816) -0.001, TSTA3 (UniProt Q13630) 0.003, TRIP6 (UniProt Q15654) 0.019, TTLL12 (UniProt Q14166) -0.047, TRAPPC8 (UniProt Q9Y2L5) 0.015, TRAF4 (UniProt Q9BUZ4) -0.049, TSEN34 (UniProt Q9BSV6) 0.034, TRAPPC3 (UniProt O43617) -0.04, TRIM23 (UniProt P36406) 0.037, TRAPPC9 isoform 2 (UniProt Q96Q05) -0.01, TRUB1 (UniProt Q8WWH5) -0.079, TRIP4 (UniProt Q15650) 0.014, TRAFD1 (UniProt O14545) 0.026, TRAPPC6B (UniProt Q86SZ2) 0.016
